No constants are given. Whether binding was seen depends on the method and setting. Some binding calls cover weakened binding; strength is not graded here. For some assays here: Tags and fused reporters may be left off the sequences shown.

Amino acid sequences for entries named in this document (tags omitted). A change or cut given only in a name is not applied to a line headed by its entry.
UniProt Q9FDW1: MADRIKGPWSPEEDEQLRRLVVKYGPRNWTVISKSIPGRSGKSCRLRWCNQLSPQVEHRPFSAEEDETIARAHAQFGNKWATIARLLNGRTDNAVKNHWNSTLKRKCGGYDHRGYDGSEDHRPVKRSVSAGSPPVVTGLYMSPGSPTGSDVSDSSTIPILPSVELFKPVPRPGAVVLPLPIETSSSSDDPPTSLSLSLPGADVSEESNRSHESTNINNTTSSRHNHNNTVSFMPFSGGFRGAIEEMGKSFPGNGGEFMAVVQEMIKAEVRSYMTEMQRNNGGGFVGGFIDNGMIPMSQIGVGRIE
UniProt P04386: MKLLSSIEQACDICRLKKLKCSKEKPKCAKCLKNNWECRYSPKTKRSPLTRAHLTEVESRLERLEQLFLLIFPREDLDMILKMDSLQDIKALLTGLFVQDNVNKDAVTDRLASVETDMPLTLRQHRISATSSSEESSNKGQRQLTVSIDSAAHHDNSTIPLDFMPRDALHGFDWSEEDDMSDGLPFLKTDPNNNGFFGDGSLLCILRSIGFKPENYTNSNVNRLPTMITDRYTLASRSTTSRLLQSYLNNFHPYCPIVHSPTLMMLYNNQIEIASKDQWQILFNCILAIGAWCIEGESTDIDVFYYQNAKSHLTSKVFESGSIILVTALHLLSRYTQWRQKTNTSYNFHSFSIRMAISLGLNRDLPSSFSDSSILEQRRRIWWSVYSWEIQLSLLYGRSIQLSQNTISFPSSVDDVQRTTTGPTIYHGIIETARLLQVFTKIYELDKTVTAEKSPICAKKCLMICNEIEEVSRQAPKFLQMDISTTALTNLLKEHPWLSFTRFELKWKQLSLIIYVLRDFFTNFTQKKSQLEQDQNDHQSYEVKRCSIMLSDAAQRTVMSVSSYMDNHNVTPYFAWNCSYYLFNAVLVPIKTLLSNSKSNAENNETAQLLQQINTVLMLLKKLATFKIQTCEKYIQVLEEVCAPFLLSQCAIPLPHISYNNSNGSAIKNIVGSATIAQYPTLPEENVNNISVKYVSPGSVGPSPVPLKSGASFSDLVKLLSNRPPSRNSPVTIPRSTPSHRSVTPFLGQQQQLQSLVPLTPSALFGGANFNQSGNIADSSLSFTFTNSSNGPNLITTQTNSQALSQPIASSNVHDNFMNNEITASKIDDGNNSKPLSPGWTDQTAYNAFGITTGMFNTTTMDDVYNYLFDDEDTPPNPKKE

Assay [1] deals with MYB44 fused to the GAL4-activating domain (AD-MYB44) (UniProt Q9FDW1). Kind of assay: yeast two-hybrid, positive control.
The target of assay [2] is T1, HAB2 (Arabidopsis) (UniProt Q9LNP9).
T1 sequence (looked up): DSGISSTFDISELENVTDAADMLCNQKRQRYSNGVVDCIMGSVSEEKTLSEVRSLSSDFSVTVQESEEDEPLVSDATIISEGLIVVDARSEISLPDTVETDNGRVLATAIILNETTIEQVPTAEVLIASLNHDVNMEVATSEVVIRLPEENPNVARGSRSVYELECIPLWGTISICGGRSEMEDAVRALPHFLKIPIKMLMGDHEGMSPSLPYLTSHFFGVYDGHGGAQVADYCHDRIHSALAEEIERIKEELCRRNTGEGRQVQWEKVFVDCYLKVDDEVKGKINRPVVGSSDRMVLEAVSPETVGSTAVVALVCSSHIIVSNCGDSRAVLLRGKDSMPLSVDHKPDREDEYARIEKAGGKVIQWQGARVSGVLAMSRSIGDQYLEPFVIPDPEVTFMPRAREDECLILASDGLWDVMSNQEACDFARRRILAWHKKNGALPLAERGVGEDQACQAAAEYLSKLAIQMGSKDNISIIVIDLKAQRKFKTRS
Briefly: tandem affinity purification (anti-HA agarose, GFP-Trap) from seedlings, MS identification.

With “PYL8 fused to the GAL4-DNA-binding domain (BD-PYL8) (from UniProt P04386 1-147; Q9FGM1 1-188)”, in assay [1], the binding entry is listed as “binds”.

B1: HA- and YFP-tagged PYL9 (PYL9-HA-YFP) (receptor)
chain: MMDGVEGGTAMYGGLETVQYVRTHHQHLCRENQCTSALVKHIKAPLHLVWSLVRRFDQPQKYKPFVSRCTVIGDPEIGSLREVNVKSGLPATTSTERLELLDDEEHILGIKIIGGDHRLKNYSSILTVHPEIIEGRAGTMVIESFVVDVPQGNTKDETCYFVEALIRCNLKSLADVSERLASQDITQ
notes: Expressed under the native PYL9 promoter in transgenic Arabidopsis seedlings; also called ProPYL9:PYL9-HA-YFP; not shown: 3HA tag at the C terminus; YFP tag at the C terminus
With B1, in assay [2], the binding result is listed as “binds”.

(Values after US20180320194A1 (PURDUE RESEARCH FOUNDATION, published 2018).)
